{
  "source": "paper PMC7819943",
  "about": "“Rice protein-binding microarrays: a tool to detect cis-acting elements near promoter regions in rice”",
  "note": "This is one part of the list.",
  "data": [
    {"molecular_target": "T1, OsSMF1 (Oryza sativa, UniProt Q6ZLB0 1-436)", "T1 sequence": "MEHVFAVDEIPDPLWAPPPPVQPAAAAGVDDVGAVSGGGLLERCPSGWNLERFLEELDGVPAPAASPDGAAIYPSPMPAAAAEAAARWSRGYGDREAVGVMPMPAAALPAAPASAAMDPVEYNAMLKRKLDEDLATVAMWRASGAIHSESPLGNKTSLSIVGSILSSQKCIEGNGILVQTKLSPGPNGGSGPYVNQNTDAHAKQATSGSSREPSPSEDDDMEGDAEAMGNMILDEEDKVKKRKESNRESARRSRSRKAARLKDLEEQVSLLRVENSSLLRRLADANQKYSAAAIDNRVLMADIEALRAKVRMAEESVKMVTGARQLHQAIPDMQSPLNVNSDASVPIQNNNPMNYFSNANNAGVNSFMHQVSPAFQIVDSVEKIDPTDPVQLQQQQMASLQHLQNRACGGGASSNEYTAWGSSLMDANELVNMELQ", "test": "protein-binding microarray (RPBM); PBS, 2% BSA, 51.3 ng/ul salmon testes DNA, 50 uM zinc acetate, 200 nM TF, 25 C, 1 h; high values mean tight binding", "details": "protein: recombinant; tags: N-terminal polyhistidine and DsRed monomer fusion (pET32a); chain copies: 2; label: CyDye5-dUTP incorporated in the synthesized complementary strand; 3' TTTTT single-stranded linker to array surface; dsDNA, one strand shown", "method_in_brief": "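Ni–NTA purification followed expression in E. coli BL21-CodonPlus of transcription factors fused N-terminally to a polyhistidine tag and DsRed. At 200 nM in PBS with 2% BSA, salmon testes DNA and 50 µM zinc acetate, the protein was incubated for 1 h at 25 °C with a custom Agilent array that had been primer-extended with Cy5-dUTP and blocked with 2% BSA. After washing, the array was read on an Axon 4000B scanner. The binding signal is per-feature fluorescence intensity in arbitrary units.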", "values": [
      {"sequence": "ATGCTTGGCTGCTTGCTGTGTTGGCTGTTGCTGAGGGCTACGGAGTCACCTAGTGCAG", "binding signal": "3970 fluorescence intensity (a.u.)"},
      {"sequence": "ACTGTTGTTTCTTTTGTACTCATAGTCATAGCCGCGCCGCCGGAGTCACCTAGTGCAG", "binding signal": "4230 fluorescence intensity (a.u.)"},
      {"sequence": "GCCCGAGAGCGAACGGCCGTCTGCCACGTCACATTTGCCGCGGAGTCACCTAGTGCAG", "binding signal": "32600 fluorescence intensity (a.u.)"},
      {"sequence": "GATCGCGTCGAGGGCTACAAGTTTGATATAAAGTTTGTCTCGGAGTCACCTAGTGCAG", "binding signal": "26100 fluorescence intensity (a.u.)"},
      {"sequence": "CTCACGAGCGCAAAGCCCATCTCAGCCCAGCTCCCACTCTCGGAGTCACCTAGTGCAG", "binding signal": "21000 fluorescence intensity (a.u.)"},
      {"sequence": "AGGAAGAAGGGAATTAGTGGGAGGATGACATGTCGGTTCACGGAGTCACCTAGTGCAG", "binding signal": "5840 fluorescence intensity (a.u.)"},
      {"sequence": "CTCTGTTCTCGCTGGCCGTACGTGTCAAGCGTATCCAGCACGGAGTCACCTAGTGCAG", "binding signal": "5870 fluorescence intensity (a.u.)"},
      {"sequence": "TCAACTGCAGGGGACGCGATATTTAGGAACATCGCGTCGGCGGAGTCACCTAGTGCAG", "binding signal": "3160 fluorescence intensity (a.u.)"},
      {"sequence": "GAGCAGTTAAGAACTCTGACCATGATGCAAAGACAACAGTCGGAGTCACCTAGTGCAG", "binding signal": "3970 fluorescence intensity (a.u.)"},
      {"sequence": "CCTTCACTAACGCTAAACGTCACAGTAACAAACTTTCTCGCGGAGTCACCTAGTGCAG", "binding signal": "20900 fluorescence intensity (a.u.)"},
      {"sequence": "CTGCCGCTGCGCGCAGGTCGTGACGCTCACGTCGTCGCCACGGAGTCACCTAGTGCAG", "binding signal": "4280 fluorescence intensity (a.u.)"},
      {"sequence": "ACTGTGTTGGTGTACGAAAGGAAAGCGTGGTGGTGCTAAGCGGAGTCACCTAGTGCAG", "binding signal": "3810 fluorescence intensity (a.u.)"},
      {"sequence": "CGCTCGCGTCCCCGTGACGCTGCTTCCCAGCGCCGCTGCCCGGAGTCACCTAGTGCAG", "binding signal": "4400 fluorescence intensity (a.u.)"},
      {"sequence": "GACGAGGAAAACCGCTCGCCCATGCGGAGGCGGCGCGCGTCGGAGTCACCTAGTGCAG", "binding signal": "31500 fluorescence intensity (a.u.)"},
      {"sequence": "CGCCGCGCTGGTCGCCATCGCCCTCCACGTCTCCTCCTCCCGGAGTCACCTAGTGCAG", "binding signal": "3980 fluorescence intensity (a.u.)"},
      {"sequence": "TTCTTCGGTGGTGGTGGTGGTGGGATGGAAGAGGAGGAAGCGGAGTCACCTAGTGCAG", "binding signal": "3740 fluorescence intensity (a.u.)"},
      {"sequence": "TGCACCGTGGGCCACAGCCTCACGCCGCGTCAGTCGTGCCCGGAGTCACCTAGTGCAG", "binding signal": "6330 fluorescence intensity (a.u.)"},
      {"sequence": "ATGTGCATACTTCTGTTGTCACAATTTCACAGATTCAAGCCGGAGTCACCTAGTGCAG", "binding signal": "4820 fluorescence intensity (a.u.)"},
      {"sequence": "CCCACCAGGGCCGGCCGTGACCGCGCCAGCTTGTCTTCCGCGGAGTCACCTAGTGCAG", "binding signal": "21700 fluorescence intensity (a.u.)"},
      {"sequence": "ATCCCAATCCATGATCCAGCCATTCATCATCTGCATATATCGGAGTCACCTAGTGCAG", "binding signal": "3200 fluorescence intensity (a.u.)"},
      {"sequence": "TTTTGACTTGCCAACCATGCCTGCCGTCAACAGTGTGGCGCGGAGTCACCTAGTGCAG", "binding signal": "3140 fluorescence intensity (a.u.)"},
      {"sequence": "GTTTCCATCCTCATTGCGCCACATCCTCATGCAATGGCTGCGGAGTCACCTAGTGCAG", "binding signal": "4910 fluorescence intensity (a.u.)"},
      {"sequence": "AGCCAATCGTGGGCCCCACGCCTTTTCCCCTCTCCCTCTTCGGAGTCACCTAGTGCAG", "binding signal": "4200 fluorescence intensity (a.u.)"},
      {"sequence": "ACGCGCACCACCTGTTCGGCGTCAGCAAGATCCAGAAGACCGGAGTCACCTAGTGCAG", "binding signal": "3610 fluorescence intensity (a.u.)"},
      {"sequence": "GAGTGAGACTTGTGACAAAGTTGTGAGTTGTGACTCAGCTCGGAGTCACCTAGTGCAG", "binding signal": "11600 fluorescence intensity (a.u.)"},
      {"sequence": "CACACAGGGATGAGACGACGACGTGCAGCCGTACGTGTCACGGAGTCACCTAGTGCAG", "binding signal": "6310 fluorescence intensity (a.u.)"},
      {"sequence": "CCGGCGTACGTACGTGGACGTCAACGCATTTGAACCGGTCCGGAGTCACCTAGTGCAG", "binding signal": "5530 fluorescence intensity (a.u.)"},
      {"sequence": "CTAGTATTTGCATCGTGACGAAAATACACAGTAGCTAATGCGGAGTCACCTAGTGCAG", "binding signal": "3170 fluorescence intensity (a.u.)"},
      {"sequence": "TCCCGGCCACTTGCCGTGTGACGACGCCGGTCAAATTTTCCGGAGTCACCTAGTGCAG", "binding signal": "3680 fluorescence intensity (a.u.)"},
      {"sequence": "TCTTTCATGCCAACCCGCCGTCCTAGCCACTCCCGTTCTTCGGAGTCACCTAGTGCAG", "binding signal": "3510 fluorescence intensity (a.u.)"},
      {"sequence": "GAAGAGGGGAAAAGAGAGAGGAGGTTGATGTGGCCTCGCTCGGAGTCACCTAGTGCAG", "binding signal": "3160 fluorescence intensity (a.u.)"},
      {"sequence": "AGCAAGTGTCAACCCCATTTTGCTTCCTTTCCCACCTCCACGGAGTCACCTAGTGCAG", "binding signal": "4100 fluorescence intensity (a.u.)"},
      {"sequence": "GGTGCACACGTGGCTCCAGGATCGGCGTCGTGTACTCCGGCGGAGTCACCTAGTGCAG", "binding signal": "11500 fluorescence intensity (a.u.)"},
      {"sequence": "TTGGTGACAAAGCTTGAGGATAACATCAACGAGACAACGACGGAGTCACCTAGTGCAG", "binding signal": "32500 fluorescence intensity (a.u.)"},
      {"sequence": "TTATTCCTGGCGTCGCGCGTCGCGTCACCGGCGCCGCCGCCGGAGTCACCTAGTGCAG", "binding signal": "4100 fluorescence intensity (a.u.)"},
      {"sequence": "ACTGGGACTACTGCCACCTCAACTGCTTTGACGACGCGCCCGGAGTCACCTAGTGCAG", "binding signal": "3470 fluorescence intensity (a.u.)"},
      {"sequence": "TTTGCTTGGGCTCAGTTGCCTGAAGAACACTCGGATGAATCGGAGTCACCTAGTGCAG", "binding signal": "3520 fluorescence intensity (a.u.)"},
      {"sequence": "AGGGCGCGGTTCTCGTTTGGGCCGCCTCTGACGCATCAACCGGAGTCACCTAGTGCAG", "binding signal": "5330 fluorescence intensity (a.u.)"},
      {"sequence": "GGGTATGCCATGTCGACACGTAACGTATATCGAAGGGTAGCGGAGTCACCTAGTGCAG", "binding signal": "9080 fluorescence intensity (a.u.)"},
      {"sequence": "GTTCATGGTTGTGACACTATTCTGCTGTATCCTTTCTTTGCGGAGTCACCTAGTGCAG", "binding signal": "3400 fluorescence intensity (a.u.)"},
      {"sequence": "TGACAGGTGACTAAGCACAGTCAATTTCTTCCCTTCAGAGCGGAGTCACCTAGTGCAG", "binding signal": "6060 fluorescence intensity (a.u.)"},
      {"sequence": "CCCATTGATGCTACAGAGAGTCCACGTCACCCTCGTCTGCCGGAGTCACCTAGTGCAG", "binding signal": "42800 fluorescence intensity (a.u.)"},
      {"sequence": "GTGTCCGTCCGTGTGTGGCTGCGTGGTGGCACGTCGGCATCGGAGTCACCTAGTGCAG", "binding signal": "6330 fluorescence intensity (a.u.)"},
      {"sequence": "CACTCGCTCGTCCACGCGTCGCCAATCTGAATCGGGTGTGCGGAGTCACCTAGTGCAG", "binding signal": "5280 fluorescence intensity (a.u.)"},
      {"sequence": "GGTGAGAATGACACGTGGGGCCCACGTGGGCCCCACCATTCGGAGTCACCTAGTGCAG", "binding signal": "13800 fluorescence intensity (a.u.)"},
      {"sequence": "CCACCGTCCACTTCAGCACCATCCGGGAGTGACCATACGCCGGAGTCACCTAGTGCAG", "binding signal": "5040 fluorescence intensity (a.u.)"},
      {"sequence": "GGAGATACGGCGAGGGGAGGGGACGGAGGGGCGGGGTGCGCGGAGTCACCTAGTGCAG", "binding signal": "7640 fluorescence intensity (a.u.)"},
      {"sequence": "AACCAGCCCATCTAGCCTTGTCATCAACAGCATAAACAAACGGAGTCACCTAGTGCAG", "binding signal": "3200 fluorescence intensity (a.u.)"},
      {"sequence": "CATCCTCATGTAGACATACATAGCTATATTTAGCAGTTTACGGAGTCACCTAGTGCAG", "binding signal": "3480 fluorescence intensity (a.u.)"},
      {"sequence": "TATCTAAGTTGAACAAGCTGCTGCTACCATGTGGGGAAATCGGAGTCACCTAGTGCAG", "binding signal": "3190 fluorescence intensity (a.u.)"},
      {"sequence": "ATATAGAAACGTCCACGTGGCCGCAGGAGATTGGGCGTCTCGGAGTCACCTAGTGCAG", "binding signal": "12400 fluorescence intensity (a.u.)"},
      {"sequence": "ATGTAGGTTCCATATTAGCCAAGCCCGGGTCAATACTACTCGGAGTCACCTAGTGCAG", "binding signal": "3890 fluorescence intensity (a.u.)"},
      {"sequence": "GGAGTCATGGGTGCATGACTTCACTTGTCATGGTTAAATACGGAGTCACCTAGTGCAG", "binding signal": "22900 fluorescence intensity (a.u.)"},
      {"sequence": "TGTGCTCAGCCTTAATTAATTAATCGAGCGAGTCATAAGCCGGAGTCACCTAGTGCAG", "binding signal": "3460 fluorescence intensity (a.u.)"}
    ]}
  ]
}
